The target in assay [1] is T1, Sbp1GST (chromosomally encoded) (yeast) (UniProt P10080).
T1 sequence: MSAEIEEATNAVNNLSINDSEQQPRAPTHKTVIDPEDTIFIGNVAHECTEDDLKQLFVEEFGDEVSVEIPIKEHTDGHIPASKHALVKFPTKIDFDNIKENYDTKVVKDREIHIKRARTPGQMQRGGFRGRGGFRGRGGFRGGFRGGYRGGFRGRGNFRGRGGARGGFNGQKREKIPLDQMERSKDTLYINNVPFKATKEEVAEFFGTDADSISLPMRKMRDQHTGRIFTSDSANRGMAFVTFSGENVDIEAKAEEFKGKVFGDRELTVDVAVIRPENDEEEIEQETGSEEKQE
Kind of assay: pull-down; Glutathione pull-down of chromosomally encoded Sbp1GST from yeast lysate of cells expressing galactose-inducible Sbp1 or Sbp1∆RGG; wild type and ∆HMT1 cells; blot with anti-GST and PAP antibody.

Assay [2] addresses T2, HisScd6FLAG (recombinant) (yeast) (UniProt P45978).
T2 sequence: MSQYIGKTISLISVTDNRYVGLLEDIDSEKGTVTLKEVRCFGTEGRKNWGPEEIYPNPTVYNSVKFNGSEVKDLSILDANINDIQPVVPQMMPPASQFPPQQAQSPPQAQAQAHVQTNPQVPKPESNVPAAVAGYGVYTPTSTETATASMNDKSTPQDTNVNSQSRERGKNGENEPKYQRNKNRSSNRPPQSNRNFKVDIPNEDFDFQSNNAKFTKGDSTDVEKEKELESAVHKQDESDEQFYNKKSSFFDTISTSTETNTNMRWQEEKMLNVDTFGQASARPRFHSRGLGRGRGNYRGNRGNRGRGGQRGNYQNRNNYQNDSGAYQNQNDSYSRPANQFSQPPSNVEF
Kind of assay: pull-down; FLAG-agarose pull-down of Scd6FLAG (450nM) with eIF4G1GST (450nM) and increasing GSTScd6 (none, 1X-450nM, 3X-1350nM); 50mM Tris-HCl pH7.4, 150mM NaCl, 1mM EDTA, 1% Triton-X100, 0.25mg/ml RNase A, 10mg/ml BSA; blots with anti-eIF4G1, anti-GST, anti-FLAG; both purified.

In assay [3] the target is T3, GSTScd6 (galactose inducible, in yeast) (yeast) (UniProt P45978).
T3 sequence: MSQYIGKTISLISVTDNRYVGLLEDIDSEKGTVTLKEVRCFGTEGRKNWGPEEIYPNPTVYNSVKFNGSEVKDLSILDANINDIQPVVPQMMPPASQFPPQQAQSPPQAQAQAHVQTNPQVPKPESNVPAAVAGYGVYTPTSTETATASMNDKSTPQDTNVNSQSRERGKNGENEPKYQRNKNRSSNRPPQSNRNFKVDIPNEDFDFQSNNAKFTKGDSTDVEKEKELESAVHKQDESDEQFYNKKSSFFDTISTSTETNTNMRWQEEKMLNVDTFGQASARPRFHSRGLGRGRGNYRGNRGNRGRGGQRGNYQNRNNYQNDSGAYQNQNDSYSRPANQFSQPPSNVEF
Kind of assay: pull-down; Glutathione Sepharose-4B pull-down of galactose-induced GST fusion from yeast lysate (200 µg protein) of cells expressing Scd6TAP, 2 h at 4°C, Buffer A (50mM HEPES pH7, 100mM NaCl, 1% Triton-X100, 10 mg/ml BSA), RNase A 0.25 mg/ml; also with Micrococcal nuclease or both; wild type and hmt1Δ cells; blot with PAP antibody and anti-GST.

Assay [4] addresses T4, eIF4G1 (recombinant, native PAGE of Figure 4c) (yeast) (UniProt P39935).
T4 sequence: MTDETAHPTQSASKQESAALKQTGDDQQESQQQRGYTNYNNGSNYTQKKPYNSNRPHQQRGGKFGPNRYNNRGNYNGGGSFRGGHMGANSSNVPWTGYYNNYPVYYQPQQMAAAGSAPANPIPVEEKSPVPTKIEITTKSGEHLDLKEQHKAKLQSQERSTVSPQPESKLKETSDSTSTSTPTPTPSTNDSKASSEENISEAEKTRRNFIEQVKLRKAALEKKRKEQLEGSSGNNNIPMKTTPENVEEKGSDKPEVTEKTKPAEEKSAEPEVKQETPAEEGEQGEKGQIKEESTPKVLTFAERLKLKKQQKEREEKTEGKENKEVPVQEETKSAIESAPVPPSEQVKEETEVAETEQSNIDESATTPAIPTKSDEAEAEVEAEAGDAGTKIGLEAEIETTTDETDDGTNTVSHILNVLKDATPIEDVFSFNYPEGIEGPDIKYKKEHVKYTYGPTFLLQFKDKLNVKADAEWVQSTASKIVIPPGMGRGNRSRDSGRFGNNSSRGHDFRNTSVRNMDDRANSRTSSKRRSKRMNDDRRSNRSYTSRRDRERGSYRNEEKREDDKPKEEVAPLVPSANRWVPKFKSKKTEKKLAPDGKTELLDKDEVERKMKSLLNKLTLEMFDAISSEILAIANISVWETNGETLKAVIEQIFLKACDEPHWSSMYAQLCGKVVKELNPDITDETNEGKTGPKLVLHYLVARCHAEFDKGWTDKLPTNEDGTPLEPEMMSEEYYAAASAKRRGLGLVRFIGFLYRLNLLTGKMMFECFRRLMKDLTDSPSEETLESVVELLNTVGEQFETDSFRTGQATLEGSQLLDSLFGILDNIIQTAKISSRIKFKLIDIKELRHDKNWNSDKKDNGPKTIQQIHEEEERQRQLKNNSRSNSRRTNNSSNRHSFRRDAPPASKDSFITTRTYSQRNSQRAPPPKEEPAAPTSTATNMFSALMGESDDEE
Kind of assay: native gel or EMSA; 100nM, 200nM and 400nM Scd6FLAG mixed with 100nM eIF4G1 in Buffer C, incubated overnight at 4°C, 6% native PAGE, Coomassie staining; both purified.

These are yes or no findings as the source states them, for the method shown. For some of these results: Binding seen in cells or lysates may run through a third protein. Some entries that bind do so weakly or less than the wild type. Sequences can lack the tags named with a protein.

B1: HisSbp1GFP (recombinant) (natural protein, yeast, UniProt P10080 1-294, looked up)
chain: MSAEIEEATNAVNNLSINDSEQQPRAPTHKTVIDPEDTIFIGNVAHECTEDDLKQLFVEEFGDEVSVEIPIKEHTDGHIPASKHALVKFPTKIDFDNIKENYDTKVVKDREIHIKRARTPGQMQRGGFRGRGGFRGRGGFRGGFRGGYRGGFRGRGNFRGRGGARGGFNGQKREKIPLDQMERSKDTLYINNVPFKATKEEVAEFFGTDADSISLPMRKMRDQHTGRIFTSDSANRGMAFVTFSGENVDIEAKAEEFKGKVFGDRELTVDVAVIRPENDEEEIEQETGSEEKQE
notes: Sbp1, yeast, wild type; source: E. coli XL1-Blue, purified (Ni-NTA)
B1: the binding result in assay [1] is recorded as “binds”.

B2: eIF4G1GST (recombinant) (protein, UniProt P39935 1-952)
chain: MTDETAHPTQSASKQESAALKQTGDDQQESQQQRGYTNYNNGSNYTQKKPYNSNRPHQQRGGKFGPNRYNNRGNYNGGGSFRGGHMGANSSNVPWTGYYNNYPVYYQPQQMAAAGSAPANPIPVEEKSPVPTKIEITTKSGEHLDLKEQHKAKLQSQERSTVSPQPESKLKETSDSTSTSTPTPTPSTNDSKASSEENISEAEKTRRNFIEQVKLRKAALEKKRKEQLEGSSGNNNIPMKTTPENVEEKGSDKPEVTEKTKPAEEKSAEPEVKQETPAEEGEQGEKGQIKEESTPKVLTFAERLKLKKQQKEREEKTEGKENKEVPVQEETKSAIESAPVPPSEQVKEETEVAETEQSNIDESATTPAIPTKSDEAEAEVEAEAGDAGTKIGLEAEIETTTDETDDGTNTVSHILNVLKDATPIEDVFSFNYPEGIEGPDIKYKKEHVKYTYGPTFLLQFKDKLNVKADAEWVQSTASKIVIPPGMGRGNRSRDSGRFGNNSSRGHDFRNTSVRNMDDRANSRTSSKRRSKRMNDDRRSNRSYTSRRDRERGSYRNEEKREDDKPKEEVAPLVPSANRWVPKFKSKKTEKKLAPDGKTELLDKDEVERKMKSLLNKLTLEMFDAISSEILAIANISVWETNGETLKAVIEQIFLKACDEPHWSSMYAQLCGKVVKELNPDITDETNEGKTGPKLVLHYLVARCHAEFDKGWTDKLPTNEDGTPLEPEMMSEEYYAAASAKRRGLGLVRFIGFLYRLNLLTGKMMFECFRRLMKDLTDSPSEETLESVVELLNTVGEQFETDSFRTGQATLEGSQLLDSLFGILDNIIQTAKISSRIKFKLIDIKELRHDKNWNSDKKDNGPKTIQQIHEEEERQRQLKNNSRSNSRRTNNSSNRHSFRRDAPPASKDSFITTRTYSQRNSQRAPPPKEEPAAPTSTATNMFSALMGESDDEE
As to B2, the binding result in assay [2] is listed as “binds”.

B3: Scd6TAP (chromosomally tagged) (protein, UniProt P45978 1-349)
chain: MSQYIGKTISLISVTDNRYVGLLEDIDSEKGTVTLKEVRCFGTEGRKNWGPEEIYPNPTVYNSVKFNGSEVKDLSILDANINDIQPVVPQMMPPASQFPPQQAQSPPQAQAQAHVQTNPQVPKPESNVPAAVAGYGVYTPTSTETATASMNDKSTPQDTNVNSQSRERGKNGENEPKYQRNKNRSSNRPPQSNRNFKVDIPNEDFDFQSNNAKFTKGDSTDVEKEKELESAVHKQDESDEQFYNKKSSFFDTISTSTETNTNMRWQEEKMLNVDTFGQASARPRFHSRGLGRGRGNYRGNRGNRGRGGQRGNYQNRNNYQNDSGAYQNQNDSYSRPANQFSQPPSNVEF
Consider B3, for which, in assay [3], the binding result is “binds”.

B4: HisScd6FLAG (recombinant) (natural protein, yeast, UniProt P45978 1-349, looked up)
chain: MSQYIGKTISLISVTDNRYVGLLEDIDSEKGTVTLKEVRCFGTEGRKNWGPEEIYPNPTVYNSVKFNGSEVKDLSILDANINDIQPVVPQMMPPASQFPPQQAQSPPQAQAQAHVQTNPQVPKPESNVPAAVAGYGVYTPTSTETATASMNDKSTPQDTNVNSQSRERGKNGENEPKYQRNKNRSSNRPPQSNRNFKVDIPNEDFDFQSNNAKFTKGDSTDVEKEKELESAVHKQDESDEQFYNKKSSFFDTISTSTETNTNMRWQEEKMLNVDTFGQASARPRFHSRGLGRGRGNYRGNRGNRGRGGQRGNYQNRNNYQNDSGAYQNQNDSYSRPANQFSQPPSNVEF
notes: Scd6, yeast; predicted molecular mass of the purified protein about 41.5 kDa; also called purified Scd6; source: E. coli BL21, purified (HisTrap HP, HiTrap Heparin HP)
On to B4, for which the binding result in assay [4] was “binds”.
